{"source": "PubChem BioAssay (NCATS)", "note": "Inconclusive means that the source gave no clear call. Such entries were picked first, then a sample of the others. Where a call stands in place of a potency, no number is given. Where the call is inconclusive, the potency comes from a doubtful curve fit. Active and inactive are the calls of the source. Calls come from the whole dose curve; as a rule, active = well fitted cell-killing curve with a large enough effect; inconclusive = small, poorly fitted or top-dose-only effect, or effect the other way; inactive = no such curve, though single readings can be large or run the other way. Potency is the fitted concentration of half-maximal effect.", "data": [{"experiment": "Quantitative High-Throughput drug screen in 47 multiple myeloma cell lines against the NCATS MIPE library collection: Karpas417_ECACC cell viability assay (AID 1918961)", "conditions": "Karpas417 myeloma viability, CellTiter-Glo ATP luminescence, 48 h; series mostly up to 45.8 µM", "summary_of_the_method": "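Inhibition of cell viability is measured here. Each line was plated at 500 cells per well, treated with MIPE 4.0 drugs, kept 48 hours at 37C, then assayed for ATP content by CellTiter-Glo luminescence.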", "values": [{"molecule": "N#CC(=C1Nc2ccccc2S1)c1ccnc(OCc2ccc(CN3CCOCC3)cc2)n1", "Potency": "active: 0.0059 µM"}, {"molecule": "O=C(O)C(=O)Nc1cccc(C2=NN=N[N]2)c1", "Potency": "inactive"}, {"molecule": "CC(C)(N)C(=O)N[C@H](COCc1ccccc1)C(=O)N1CCC2(CC1)CN(S(C)(=O)=O)c1ccccc12", "Potency": "inactive"}, {"molecule": "Nc1cccc(S(=O)(=O)N2CCCN(S(=O)(=O)c3ccc4c(c3)OCCO4)CC2)c1", "Potency": "inconclusive: 33.2 µM [rising, partial curve, poor fit]"}]}]}
